These are yes or no findings as the source states them, for the method shown.
T1: ALP peptide 3 (residues 175-196) (human)
T1 sequence (peptide): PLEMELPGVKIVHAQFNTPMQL

By UniProt entry, the sequences of proteins in these tests, tags left out. Residues count along the entry.
α-actinin 2 rod domain, spectrin repeats 1-4 (R1-R4) (P35609, residues 274-746): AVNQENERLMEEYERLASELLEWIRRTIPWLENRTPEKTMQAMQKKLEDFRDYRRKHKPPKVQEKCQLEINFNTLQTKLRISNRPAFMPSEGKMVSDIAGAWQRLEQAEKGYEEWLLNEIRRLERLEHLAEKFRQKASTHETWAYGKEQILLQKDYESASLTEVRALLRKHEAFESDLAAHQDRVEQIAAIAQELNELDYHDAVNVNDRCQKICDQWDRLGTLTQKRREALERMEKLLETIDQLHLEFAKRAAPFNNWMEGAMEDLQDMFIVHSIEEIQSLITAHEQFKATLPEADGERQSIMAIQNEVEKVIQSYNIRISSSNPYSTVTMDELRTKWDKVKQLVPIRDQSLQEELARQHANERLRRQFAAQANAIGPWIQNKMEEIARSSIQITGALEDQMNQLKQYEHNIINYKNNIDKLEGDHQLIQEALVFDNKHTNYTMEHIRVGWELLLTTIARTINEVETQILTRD
α-actinin 2 spectrin repeats 2 and 3 (R2-R3) (P35609, residues 371-637): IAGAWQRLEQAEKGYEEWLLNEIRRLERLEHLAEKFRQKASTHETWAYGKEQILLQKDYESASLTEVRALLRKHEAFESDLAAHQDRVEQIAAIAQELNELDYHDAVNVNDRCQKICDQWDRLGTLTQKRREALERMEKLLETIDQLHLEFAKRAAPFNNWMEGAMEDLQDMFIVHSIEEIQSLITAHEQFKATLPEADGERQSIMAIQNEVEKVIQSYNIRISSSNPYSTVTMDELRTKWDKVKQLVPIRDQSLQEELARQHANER


Key:
[1] = target: T1, ALP peptide 3 (residues 175-196) (human); assay: SPR; Biacore 3000; ALP107-273 or peptide 3 immobilised by amine coupling on CM5; R1-R4 or R2-R3 as soluble analyte; 20 mM Tris pH 7.4, 150 mM NaCl, 0.005% P20; apparent Kd; both purified
[2] = target: α-actinin 2 rod domain, spectrin repeats 1-4 (R1-R4) (human) (UniProt P35609); assay: SPR; Biacore 3000; peptide 3 compared with its scrambled version on the rod domain (Fig 7D); which one was immobilised is not told; 20 mM Tris pH 7.4, 150 mM NaCl, 0.005% P20; both purified

binding [1]	binding [2]	Molecule
no binding		α-actinin 2 spectrin repeats 2 and 3 (R2-R3) (from UniProt P35609 371-637) (domain or fragment)
	no binding	MNKPEQALLVQIHPLVTEPFMG [scrambled version of peptide 3]

Source: PMC2670261, “Characterization of the interaction between Actinin-Associated LIM Protein (ALP) and the rod domain of α-actinin” (BMC Cell Biology, 2009)
